Results published in publication doi:10.1101/2025.02.23.639702.
Results are given in words; binding and its absence hold for the method and conditions named. In cells and extracts the contact can be indirect. Some binding calls cover weakened binding; strength is not graded here.

Molecular target: T1, BtuCD, endogenous in E. coli BW25113 membranes (E. coli (endogenous in BW25113)) (UniProt P06609+P06611)
T1 sequence 1: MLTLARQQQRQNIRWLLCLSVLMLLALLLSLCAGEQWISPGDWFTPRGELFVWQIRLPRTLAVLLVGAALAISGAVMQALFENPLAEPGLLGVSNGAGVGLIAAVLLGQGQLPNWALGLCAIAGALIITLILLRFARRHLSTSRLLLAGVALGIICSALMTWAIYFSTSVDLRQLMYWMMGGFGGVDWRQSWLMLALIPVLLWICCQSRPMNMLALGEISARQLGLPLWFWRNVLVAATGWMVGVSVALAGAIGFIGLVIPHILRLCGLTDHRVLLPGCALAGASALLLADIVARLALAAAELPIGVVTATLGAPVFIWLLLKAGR
T1 sequence 2: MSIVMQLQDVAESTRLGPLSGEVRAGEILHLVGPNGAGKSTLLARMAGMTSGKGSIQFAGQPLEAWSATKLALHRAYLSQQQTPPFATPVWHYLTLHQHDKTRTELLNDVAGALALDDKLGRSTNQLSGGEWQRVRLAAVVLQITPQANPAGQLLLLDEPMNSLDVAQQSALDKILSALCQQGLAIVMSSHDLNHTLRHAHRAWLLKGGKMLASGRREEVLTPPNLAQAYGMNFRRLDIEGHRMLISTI
Assay: co-sedimentation

binding: binds
B1: BtuF, endogenous in E. coli BW25113 (protein, UniProt P37028 23-266)
chain: APRVITLSPANTELAFAAGITPVGVSSYSDYPPQAQKIEQVSTWQGMNLERIVALKPDLVIAWRGGNAERQVDQLASLGIKVMWVDATSIEQIANALRQLAPWSPQPDKAEQAAQSLLDQYAQLKAQYADKPKKRVFLQFGINPPFTSGKESIQNQVLEVCGGENIFKDSRVPWPQVSREQVLARSPQAIVITGGPDQIPKIKQYWGEQLKIPVIPLTSDWFERASPRIILAAQQLCNALSQVD
